Laboratory results as given in PMC12124498.
These are yes or no findings as the source states them, for the method shown. Binding seen in cells or lysates may run through a third protein. Here binding means that the protein was enriched with, or labelled near, the bait; the list need not be complete.

The chains behind the UniProt entries cited, without tags or fusion partners.
UniProt P09012: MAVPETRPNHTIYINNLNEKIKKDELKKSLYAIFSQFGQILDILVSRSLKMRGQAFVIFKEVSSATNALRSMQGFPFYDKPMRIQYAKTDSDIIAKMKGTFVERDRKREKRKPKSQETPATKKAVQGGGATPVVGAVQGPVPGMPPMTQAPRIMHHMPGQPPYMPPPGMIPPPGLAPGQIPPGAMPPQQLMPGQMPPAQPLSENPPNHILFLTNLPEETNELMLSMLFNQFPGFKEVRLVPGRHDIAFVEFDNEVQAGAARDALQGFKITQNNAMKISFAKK
UniProt Q99832: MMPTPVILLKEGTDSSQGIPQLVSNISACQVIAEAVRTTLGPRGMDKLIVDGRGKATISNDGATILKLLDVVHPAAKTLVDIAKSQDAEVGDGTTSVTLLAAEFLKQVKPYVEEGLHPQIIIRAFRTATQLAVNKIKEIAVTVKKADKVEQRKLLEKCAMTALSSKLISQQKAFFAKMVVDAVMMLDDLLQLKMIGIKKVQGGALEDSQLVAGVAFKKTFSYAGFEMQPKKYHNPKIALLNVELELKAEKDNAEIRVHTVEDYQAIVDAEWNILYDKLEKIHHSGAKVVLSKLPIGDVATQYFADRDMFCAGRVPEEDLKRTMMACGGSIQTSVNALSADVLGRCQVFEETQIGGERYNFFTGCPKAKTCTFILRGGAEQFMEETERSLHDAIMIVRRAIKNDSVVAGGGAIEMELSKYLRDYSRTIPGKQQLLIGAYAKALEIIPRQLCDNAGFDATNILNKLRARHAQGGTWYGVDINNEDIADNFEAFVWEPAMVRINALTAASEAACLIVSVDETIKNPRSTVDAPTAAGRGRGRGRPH
UniProt O95168: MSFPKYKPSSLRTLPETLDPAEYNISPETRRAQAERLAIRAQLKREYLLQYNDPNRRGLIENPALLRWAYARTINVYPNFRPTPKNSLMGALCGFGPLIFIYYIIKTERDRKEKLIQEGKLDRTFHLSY
UniProt Q9NR30: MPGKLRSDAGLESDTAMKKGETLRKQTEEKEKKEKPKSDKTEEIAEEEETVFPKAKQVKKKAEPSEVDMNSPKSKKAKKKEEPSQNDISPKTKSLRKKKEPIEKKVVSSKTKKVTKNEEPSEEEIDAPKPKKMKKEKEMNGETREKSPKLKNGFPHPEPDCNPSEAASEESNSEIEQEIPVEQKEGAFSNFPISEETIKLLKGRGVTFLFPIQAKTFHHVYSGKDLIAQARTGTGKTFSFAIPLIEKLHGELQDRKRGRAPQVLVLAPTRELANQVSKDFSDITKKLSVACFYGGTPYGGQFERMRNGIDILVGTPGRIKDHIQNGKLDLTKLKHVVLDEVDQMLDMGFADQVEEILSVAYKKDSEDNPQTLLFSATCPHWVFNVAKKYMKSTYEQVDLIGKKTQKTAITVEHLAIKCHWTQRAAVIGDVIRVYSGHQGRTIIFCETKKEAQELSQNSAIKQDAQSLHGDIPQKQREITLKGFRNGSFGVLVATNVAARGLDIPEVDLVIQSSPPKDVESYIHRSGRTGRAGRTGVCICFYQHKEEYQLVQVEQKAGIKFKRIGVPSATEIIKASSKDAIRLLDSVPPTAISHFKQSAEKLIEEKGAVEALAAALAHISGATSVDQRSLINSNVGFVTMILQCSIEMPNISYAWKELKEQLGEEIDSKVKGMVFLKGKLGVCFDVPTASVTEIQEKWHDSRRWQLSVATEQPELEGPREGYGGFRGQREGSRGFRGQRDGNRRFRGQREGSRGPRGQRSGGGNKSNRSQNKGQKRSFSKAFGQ
UniProt Q9Y262: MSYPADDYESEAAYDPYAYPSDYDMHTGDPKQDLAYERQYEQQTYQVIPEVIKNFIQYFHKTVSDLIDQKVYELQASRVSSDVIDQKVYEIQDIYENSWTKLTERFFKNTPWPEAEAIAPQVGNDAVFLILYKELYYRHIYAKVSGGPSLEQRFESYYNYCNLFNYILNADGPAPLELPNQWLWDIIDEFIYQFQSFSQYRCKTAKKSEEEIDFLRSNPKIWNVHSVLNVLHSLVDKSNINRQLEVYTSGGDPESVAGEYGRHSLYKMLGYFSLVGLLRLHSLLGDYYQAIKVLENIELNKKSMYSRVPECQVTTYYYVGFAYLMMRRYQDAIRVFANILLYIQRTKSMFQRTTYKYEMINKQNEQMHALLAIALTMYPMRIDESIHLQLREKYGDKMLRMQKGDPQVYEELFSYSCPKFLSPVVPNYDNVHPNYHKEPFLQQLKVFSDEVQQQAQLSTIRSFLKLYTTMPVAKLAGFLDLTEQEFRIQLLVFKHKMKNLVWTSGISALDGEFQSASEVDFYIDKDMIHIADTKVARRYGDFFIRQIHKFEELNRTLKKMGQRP
UniProt P53621: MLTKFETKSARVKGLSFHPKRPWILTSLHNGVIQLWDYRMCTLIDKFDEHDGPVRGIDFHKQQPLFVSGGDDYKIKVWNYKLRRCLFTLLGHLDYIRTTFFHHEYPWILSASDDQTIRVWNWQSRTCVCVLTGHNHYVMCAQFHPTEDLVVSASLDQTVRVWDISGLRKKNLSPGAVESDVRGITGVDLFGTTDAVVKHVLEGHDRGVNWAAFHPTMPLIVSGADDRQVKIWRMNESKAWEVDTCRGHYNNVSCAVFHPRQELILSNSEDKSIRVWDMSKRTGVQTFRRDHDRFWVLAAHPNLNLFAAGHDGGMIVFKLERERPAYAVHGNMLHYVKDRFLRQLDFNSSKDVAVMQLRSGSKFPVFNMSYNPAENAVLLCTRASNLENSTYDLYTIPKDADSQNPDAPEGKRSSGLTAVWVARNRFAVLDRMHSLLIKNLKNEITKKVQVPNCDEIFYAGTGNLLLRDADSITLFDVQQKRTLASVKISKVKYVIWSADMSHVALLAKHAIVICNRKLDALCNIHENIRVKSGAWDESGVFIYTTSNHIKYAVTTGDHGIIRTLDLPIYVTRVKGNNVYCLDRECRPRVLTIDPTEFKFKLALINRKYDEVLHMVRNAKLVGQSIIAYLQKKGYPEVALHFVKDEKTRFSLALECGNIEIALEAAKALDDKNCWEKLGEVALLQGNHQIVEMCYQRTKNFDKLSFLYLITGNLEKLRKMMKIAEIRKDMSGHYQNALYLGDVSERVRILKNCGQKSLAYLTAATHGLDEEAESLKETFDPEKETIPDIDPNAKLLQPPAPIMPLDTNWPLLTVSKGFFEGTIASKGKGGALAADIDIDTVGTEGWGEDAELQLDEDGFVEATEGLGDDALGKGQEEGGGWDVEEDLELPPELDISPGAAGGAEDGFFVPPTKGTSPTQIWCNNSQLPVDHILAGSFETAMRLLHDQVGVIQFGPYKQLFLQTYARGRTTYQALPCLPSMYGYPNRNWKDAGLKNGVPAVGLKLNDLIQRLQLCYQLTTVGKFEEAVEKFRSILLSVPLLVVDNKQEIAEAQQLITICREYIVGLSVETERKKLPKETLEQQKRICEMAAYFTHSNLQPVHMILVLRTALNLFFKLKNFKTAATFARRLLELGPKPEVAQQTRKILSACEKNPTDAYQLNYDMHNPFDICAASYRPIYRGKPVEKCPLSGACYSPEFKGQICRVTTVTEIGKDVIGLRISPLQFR
UniProt Q01082: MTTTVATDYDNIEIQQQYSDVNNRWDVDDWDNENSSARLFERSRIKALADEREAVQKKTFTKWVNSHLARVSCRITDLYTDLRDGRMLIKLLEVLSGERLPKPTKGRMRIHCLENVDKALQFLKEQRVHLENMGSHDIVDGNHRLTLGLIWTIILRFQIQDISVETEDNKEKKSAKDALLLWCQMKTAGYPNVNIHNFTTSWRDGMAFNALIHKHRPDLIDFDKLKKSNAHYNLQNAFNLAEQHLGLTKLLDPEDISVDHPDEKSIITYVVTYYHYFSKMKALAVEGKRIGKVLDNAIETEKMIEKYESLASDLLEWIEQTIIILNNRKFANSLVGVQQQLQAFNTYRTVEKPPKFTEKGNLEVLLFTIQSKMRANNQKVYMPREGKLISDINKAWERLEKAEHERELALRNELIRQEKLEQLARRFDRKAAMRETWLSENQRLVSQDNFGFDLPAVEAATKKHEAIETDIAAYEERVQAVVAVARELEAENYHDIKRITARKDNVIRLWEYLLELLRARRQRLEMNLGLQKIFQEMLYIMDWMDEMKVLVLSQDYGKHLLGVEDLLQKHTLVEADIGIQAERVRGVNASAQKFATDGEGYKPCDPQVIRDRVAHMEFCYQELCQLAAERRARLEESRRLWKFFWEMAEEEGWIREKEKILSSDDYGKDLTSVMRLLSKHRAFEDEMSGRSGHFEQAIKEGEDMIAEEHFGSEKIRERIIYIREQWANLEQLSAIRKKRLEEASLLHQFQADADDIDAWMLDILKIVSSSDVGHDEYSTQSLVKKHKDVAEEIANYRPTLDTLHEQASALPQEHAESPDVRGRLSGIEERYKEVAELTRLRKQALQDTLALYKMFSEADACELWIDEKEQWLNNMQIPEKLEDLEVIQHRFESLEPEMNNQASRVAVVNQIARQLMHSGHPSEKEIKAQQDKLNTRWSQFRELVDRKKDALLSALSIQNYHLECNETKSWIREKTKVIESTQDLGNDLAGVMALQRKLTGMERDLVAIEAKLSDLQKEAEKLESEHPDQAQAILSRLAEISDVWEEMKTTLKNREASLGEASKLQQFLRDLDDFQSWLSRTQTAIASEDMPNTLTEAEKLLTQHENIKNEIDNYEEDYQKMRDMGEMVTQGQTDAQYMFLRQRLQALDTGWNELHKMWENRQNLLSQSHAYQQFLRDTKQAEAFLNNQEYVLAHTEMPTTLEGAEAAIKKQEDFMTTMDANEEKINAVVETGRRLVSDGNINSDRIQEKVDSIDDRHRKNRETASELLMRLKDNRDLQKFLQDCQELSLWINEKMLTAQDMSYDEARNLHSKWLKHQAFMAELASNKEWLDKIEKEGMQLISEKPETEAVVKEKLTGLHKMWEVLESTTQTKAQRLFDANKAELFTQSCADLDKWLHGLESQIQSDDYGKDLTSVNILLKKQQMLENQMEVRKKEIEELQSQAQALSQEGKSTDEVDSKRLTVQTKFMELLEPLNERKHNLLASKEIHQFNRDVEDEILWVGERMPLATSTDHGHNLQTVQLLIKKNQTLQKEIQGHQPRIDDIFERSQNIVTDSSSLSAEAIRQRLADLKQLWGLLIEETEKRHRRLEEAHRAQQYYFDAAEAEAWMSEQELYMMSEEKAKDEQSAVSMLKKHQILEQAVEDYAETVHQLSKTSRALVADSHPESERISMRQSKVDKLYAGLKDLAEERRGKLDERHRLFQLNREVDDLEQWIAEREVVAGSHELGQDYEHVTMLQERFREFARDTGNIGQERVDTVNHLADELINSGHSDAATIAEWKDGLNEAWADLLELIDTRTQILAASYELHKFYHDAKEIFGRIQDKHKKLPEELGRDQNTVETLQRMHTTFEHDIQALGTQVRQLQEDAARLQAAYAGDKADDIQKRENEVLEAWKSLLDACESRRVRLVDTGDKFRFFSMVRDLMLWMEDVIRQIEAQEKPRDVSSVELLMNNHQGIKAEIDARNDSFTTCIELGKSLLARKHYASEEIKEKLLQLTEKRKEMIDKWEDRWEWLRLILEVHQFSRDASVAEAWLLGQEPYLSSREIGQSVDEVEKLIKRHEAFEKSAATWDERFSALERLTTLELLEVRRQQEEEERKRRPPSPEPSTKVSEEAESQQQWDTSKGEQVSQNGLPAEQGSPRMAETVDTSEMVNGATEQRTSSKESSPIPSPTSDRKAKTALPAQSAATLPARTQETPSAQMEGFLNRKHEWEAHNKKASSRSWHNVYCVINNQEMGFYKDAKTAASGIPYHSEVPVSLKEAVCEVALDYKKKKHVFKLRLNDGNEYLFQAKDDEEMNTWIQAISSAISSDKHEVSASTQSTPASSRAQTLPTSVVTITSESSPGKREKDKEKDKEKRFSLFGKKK
UniProt P35080: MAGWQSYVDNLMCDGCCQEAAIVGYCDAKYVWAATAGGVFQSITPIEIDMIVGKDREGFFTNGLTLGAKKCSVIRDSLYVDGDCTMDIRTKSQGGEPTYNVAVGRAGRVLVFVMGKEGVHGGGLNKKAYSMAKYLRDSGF
UniProt Q13509: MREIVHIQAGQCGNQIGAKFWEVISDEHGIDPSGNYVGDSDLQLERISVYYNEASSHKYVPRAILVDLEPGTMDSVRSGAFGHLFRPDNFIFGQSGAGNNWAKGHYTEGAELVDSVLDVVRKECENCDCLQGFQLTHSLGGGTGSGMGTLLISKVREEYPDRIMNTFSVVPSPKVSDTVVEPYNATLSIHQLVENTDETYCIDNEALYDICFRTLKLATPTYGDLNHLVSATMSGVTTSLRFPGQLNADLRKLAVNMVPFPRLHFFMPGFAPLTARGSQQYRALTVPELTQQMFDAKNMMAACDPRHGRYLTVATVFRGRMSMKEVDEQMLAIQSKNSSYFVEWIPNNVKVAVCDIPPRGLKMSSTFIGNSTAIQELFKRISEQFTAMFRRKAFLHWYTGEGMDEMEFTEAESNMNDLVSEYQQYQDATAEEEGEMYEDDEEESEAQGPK

B1: RARS (protein, UniProt P54136 1-660)
chain: MDVLVSECSARLLQQEEEIKSLTAEIDRLKNCGCLGASPNLEQLQEENLKLKYRLNILRKSLQAERNKPTKNMINIISRLQEVFGHAIKAAYPDLENPPLLVTPSQQAKFGDYQCNSAMGISQMLKTKEQKVNPREIAENITKHLPDNECIEKVEIAGPGFINVHLRKDFVSEQLTSLLVNGVQLPALGENKKVIVDFSSPNIAKEMHVGHLRSTIIGESISRLFEFAGYDVLRLNHVGDWGTQFGMLIAHLQDKFPDYLTVSPPIGDLQVFYKESKKRFDTEEEFKKRAYQCVVLLQGKNPDITKAWKLICDVSRQELNKIYDALDVSLIERGESFYQDRMNDIVKEFEDRGFVQVDDGRKIVFVPGCSIPLTIVKSDGGYTYDTSDLAAIKQRLFEEKADMIIYVVDNGQSVHFQTIFAAAQMIGWYDPKVTRVFHAGFGVVLGEDKKKFKTRSGETVRLMDLLGEGLKRSMDKLKEKERDKVLTAEELNAAQTSVAYGCIKYADLSHNRLNDYIFSFDKMLDDRGNTAAYLLYAFTRIRSIARLANIDEEMLQKAARETKILLDHEKEWKLGRCILRFPEILQKILDDLFLHTLCDYIYELATAFTEFYDSCYCVEKDRQTGKILKVNMWRMLLCEAVAAVMAKGFDILGIKPVQRM
B2: LPCAT1 (protein, UniProt Q8NF37 1-534)
chain: MRLRGCGPRAAPASSAGASDARLLAPPGRNPFVHELRLSALQKAQVALMTLTLFPVRLLVAAAMMLLAWPLALVASLGSAEKEPEQPPALWRKVVDFLLKAIMRTMWFAGGFHRVAVKGRQALPTEAAILTLAPHSSYFDAIPVTMTMSSIVMKAESRDIPIWGTLIQYIRPVFVSRSDQDSRRKTVEEIKRRAQSNGKWPQIMIFPEGTCTNRTCLITFKPGAFIPGAPVQPVVLRYPNKLDTITWTWQGPGALEILWLTLCQFHNQVEIEFLPVYSPSEEEKRNPALYASNVRRVMAEALGVSVTDYTFEDCQLALAEGQLRLPADTCLLEFARLVRGLGLKPEKLEKDLDRYSERARMKGGEKIGIAEFAASLEVPVSDLLEDMFSLFDESGSGEVDLRECVVALSVVCRPARTLDTIQLAFKMYGAQEDGSVGEGDLSCILKTALGVAELTVTDLFRAIDQEEKGKITFADFHRFAEMYPAFAEEYLYPDQTHFESCAETSPAPIPNGFCADFSPENSDAGRKPVRKKLD
B3: MCM5 (protein, UniProt P33992 1-734)
chain: MSGFDDPGIFYSDSFGGDAQADEGQARKSQLQRRFKEFLRQYRVGTDRTGFTFKYRDELKRHYNLGEYWIEVEMEDLASFDEDLADYLYKQPAEHLQLLEEAAKEVADEVTRPRPSGEEVLQDIQVMLKSDASPSSIRSLKSDMMSHLVKIPGIIIAASAVRAKATRISIQCRSCRNTLTNIAMRPGLEGYALPRKCNTDQAGRPKCPLDPYFIMPDKCKCVDFQTLKLQELPDAVPHGEMPRHMQLYCDRYLCDKVVPGNRVTIMGIYSIKKFGLTTSRGRDRVGVGIRSSYIRVLGIQVDTDGSGRSFAGAVSPQEEEEFRRLAALPNVYEVISKSIAPSIFGGTDMKKAIACLLFGGSRKRLPDGLTRRGDINLLMLGDPGTAKSQLLKFVEKCSPIGVYTSGKGSSAAGLTASVMRDPSSRNFIMEGGAMVLADGGVVCIDEFDKMREDDRVAIHEAMEQQTISIAKAGITTTLNSRCSVLAAANSVFGRWDETKGEDNIDFMPTILSRFDMIFIVKDEHNEERDVMLAKHVITLHVSALTQTQAVEGEIDLAKLKKFIAYCRVKCGPRLSAEAAEKLKNRYIIMRSGARQHERDSDRRSSIPITVRQLEAIVRIAEALSKMKLQPFATEADVEEALRLFQVSTLDAALSGTLSGVEGFTSQEDQEMLSRIEKQLKRRFAIGSQVSEHSIIKDFTKQKYPEHAIHKVLQLMLRRGEIQHRMQRKVLYRLK
B4: FADS2 (protein, UniProt O95864 1-444)
chain: MGKGGNQGEGAAEREVSVPTFSWEEIQKHNLRTDRWLVIDRKVYNITKWSIQHPGGQRVIGHYAGEDATDAFRAFHPDLEFVGKFLKPLLIGELAPEEPSQDHGKNSKITEDFRALRKTAEDMNLFKTNHVFFLLLLAHIIALESIAWFTVFYFGNGWIPTLITAFVLATSQAQAGWLQHDYGHLSVYRKPKWNHLVHKFVIGHLKGASANWWNHRHFQHHAKPNIFHKDPDVNMLHVFVLGEWQPIEYGKKKLKYLPYNHQHEYFFLIGPPLLIPMYFQYQIIMTMIVHKNWVDLAWAVSYYIRFFITYIPFYGILGALLFLNFIRFLESHWFVWVTQMNHIVMEIDQEAYRDWFSSQLTATCNVEQSFFNDWFSGHLNFQIEHHLFPTMPRHNLHKIAPLVKSLCAKHGIEYQEKPLLRALLDIIRSLKKSGKLWLDAYLHK
B5: HSD11B2 (protein, UniProt P80365 1-405)
chain: MERWPWPSGGAWLLVAARALLQLLRSDLRLGRPLLAALALLAALDWLCQRLLPPPAALAVLAAAGWIALSRLARPQRLPVATRAVLITGCDSGFGKETAKKLDSMGFTVLATVLELNSPGAIELRTCCSPRLRLLQMDLTKPGDISRVLEFTKAHTTSTGLWGLVNNAGHNEVVADAELSPVATFRSCMEVNFFGALELTKGLLPLLRSSRGRIVTVGSPAGDMPYPCLGAYGTSKAAVALLMDTFSCELLPWGVKVSIIQPGCFKTESVRNVGQWEKRKQLLLANLPQELLQAYGKDYIEHLHGQFLHSLRLAMSDLTPVVDAITDALLAARPRRRYYPGQGLGLMYFIHYYLPEGLRRRFLQAFFISHCLPRALQPGQPGTTPPQDAAQDPNLSPGPSPAVAR
B6: CLDN6 (protein, UniProt P56747 1-220)
chain: MASAGMQILGVVLTLLGWVNGLVSCALPMWKVTAFIGNSIVVAQVVWEGLWMSCVVQSTGQMQCKVYDSLLALPQDLQAARALCVIALLVALFGLLVYLAGAKCTTCVEEKDSKARLVLTSGIVFVISGVLTLIPVCWTAHAIIRDFYNPLVAEAQKRELGASLYLGWAASGLLLLGGGLLCCTCPSGGSQGPSHYMARYSTSAPAISRGPSEYPTKNYV
B7: MBOAT7 (protein, UniProt Q96N66 1-472)
chain: MSPEEWTYLVVLLISIPIGFLFKKAGPGLKRWGAAAVGLGLTLFTCGPHTLHSLVTILGTWALIQAQPCSCHALALAWTFSYLLFFRALSLLGLPTPTPFTNAVQLLLTLKLVSLASEVQDLHLAQRKEMASGFSKGPTLGLLPDVPSLMETLSYSYCYVGIMTGPFFRYRTYLDWLEQPFPGAVPSLRPLLRRAWPAPLFGLLFLLSSHLFPLEAVREDAFYARPLPARLFYMIPVFFAFRMRFYVAWIAAECGCIAAGFGAYPVAAKARAGGGPTLQCPPPSSPEKAASLEYDYETIRNIDCYSTDFCVRVRDGMRYWNMTVQWWLAQYIYKSAPARSYVLRSAWTMLLSAYWHGLHPGYYLSFLTIPLCLAAEGRLESALRGRLSPGGQKAWDWVHWFLKMRAYDYMCMGFVLLSLADTLRYWASIYFCIHFLALAALGLGLALGGGSPSRRKAASQPTSLAPEKLREE
B8: SLC25A3 (protein, UniProt Q00325 50-362)
chain: AVEEQYSCDYGSGRFFILCGLGGIISCGTTHTALVPLDLVKCRMQVDPQKYKGIFNGFSVTLKEDGVRGLAKGWAPTFLGYSMQGLCKFGFYEVFKVLYSNMLGEENTYLWRTSLYLAASASAEFFADIALAPMEAAKVRIQTQPGYANTLRDAAPKMYKEEGLKAFYKGVAPLWMRQIPYTMMKFACFERTVEALYKFVVPKPRSECSKPEQLVVTFVAGYIAGVFCAIVSHPADSVVSVLNKEKGSSASLVLKRLGFKGVWKGLFARIIMIGTLTALQWFIYDSVKVYFRLPRPPPPEMPESLKKKLGLTQ
B9: APRT (protein, UniProt P07741 1-180)
chain: MADSELQLVEQRIRSFPDFPTPGVVFRDISPVLKDPASFRAAIGLLARHLKATHGGRIDYIAGLDSRGFLFGPSLAQELGLGCVLIRKRGKLPGPTLWASYSLEYGKAELEIQKDALEPGQRVVVVDDLLATGGTMNAACELLGRLQAEVLECVSLVELTSLKGREKLAPVPFFSLLQYE
B10: NSDHL (protein, UniProt Q15738 1-373)
chain: MEPAVSEPMRDQVARTHLTEDTPKVNADIEKVNQNQAKRCTVIGGSGFLGQHMVEQLLARGYAVNVFDIQQGFDNPQVRFFLGDLCSRQDLYPALKGVNTVFHCASPPPSSNNKELFYRVNYIGTKNVIETCKEAGVQKLILTSSASVIFEGVDIKNGTEDLPYAMKPIDYYTETKILQERAVLGANDPEKNFLTTAIRPHGIFGPRDPQLVPILIEAARNGKMKFVIGNGKNLVDFTFVENVVHGHILAAEQLSRDSTLGGKAFHITNDEPIPFWTFLSRILTGLNYEAPKYHIPYWVAYYLALLLSLLVMVISPVIQLQPTFTPMRVALAGTFHYYSCERAKKAMGYQPLVTMDDAMERTVQSFRHLRRVK

The molecules below were run against U2AF2-TurboID-HA (human) (UniProt P26368) (assay: proximity labelling; U2AF2-TurboID-HA induced with doxycycline for 4 h in pluripotent hiPSC; biotinylated proteins purified on streptavidin magnetic beads, LC-MS with label-free quantification; hits: Log2ΔLFQ >= 2 and p <= 0.05, pluripotent against mesoderm U2AF2-TurboID samples).

Row | Molecule | binding
1 | SNRPA (from UniProt P09012 1-282) | binds
2 | ENAH (from UniProt Q8N8S7 1-591) | binds
3 | CCT7 (from UniProt Q99832 1-543) | binds
4 | NDUFB4 (from UniProt O95168 1-129) | binds
5 | NDUFB7 (from UniProt P17568 1-137) | binds
6 | RCC2 (from UniProt Q9P258 1-522) | binds
7 | DDX21 (from UniProt Q9NR30 1-783) | binds
8 | RAB7A (from UniProt P51149 1-207) | binds
9 | PSMD3 (from UniProt O43242 1-534) | binds
10 | EIF3L (from UniProt Q9Y262 1-564) | binds
11 | TUBB4B (from UniProt P68371 1-445) | binds
12 | EIF3D (from UniProt O15371 1-548) | binds
13 | LETM1 (from UniProt O95202 116-739) | binds
14 | SLC25A1 (from UniProt P53007 14-311) | binds
15 | LMNB1 (from UniProt P20700 1-586) | binds
16 | RAB1A (from UniProt P62820 1-205) | binds
17 | PPIB (from UniProt P23284 34-216) | binds
18 | COPA (from UniProt P53621 1-1224) | binds

Row | Molecule | binding
19 | PRMT1 (from UniProt Q99873 1-371) | binds
20 | SPTBN1 (from UniProt Q01082 1-2364) | binds
21 | ZNF207 (from UniProt O43670 1-478) | binds
22 | EIF2S2 (from UniProt P20042 1-333) | binds
23 | PFN2 (from UniProt P35080 1-140) | binds
24 | BUB3 (from UniProt O43684 1-328) | binds
25 | PSMC2 (from UniProt P35998 1-433) | binds
26 | TUBB3 (from UniProt Q13509 1-450) | binds
27 | B1 | binds
28 | B2 | binds
29 | B3 | binds
30 | B4 | binds
31 | B5 | binds
32 | B6 | binds
33 | B7 | binds
34 | B8 | binds
35 | B9 | binds
36 | B10 | binds
